Measurements taken from PubChem BioAssay AID2685 (National Center for Advancing Translational Sciences (NCATS), 2010).
This is one part of the list. The main result of the screen is listed elsewhere. These columns were measured beside it and carry no call. Most of these compounds were active or inconclusive in the main read-out, so they are no random draw. Potencies come from curve fits of mixed quality, noted in brackets.

Test: qHTS Assay for Lipid Storage Modulators in Drosophila S3 Cells;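 for cell number change: cells counted by Cell Tracker Red CMTPX staining in the red channel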
Settings: BODIPY lipid droplet fluorescence, 18-24 h; for cell number change: measured here: cell count max response, cells fed with added oleic acid
Outline: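 Drosophila S3 cells loaded with oleic acid (400 uM, as added) and compounds at several concentrations; lipid droplets imaged by 488-nm laser-scanning cytometry, 500–530 nm intensity and object ratio to cell channel. Percent activity normalized to 20 uM Triacsin C.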

[1] = measured here: lipid fluorescence (Fed channel) AC50, cells fed with added oleic acid
[2] = measured here: cell number channel AC50, cells fed with added oleic acid

| SMILES | cell number change [%] | AC50 [1] | AC50 [2] |
| --- | --- | --- | --- |
| CCCC(=O)OCC(=O)Nc1ccc2[nH]c(=O)[nH]c2c1 | 0.923 | 0.651 µM [rising, single point] | – |
| CCOC(=O)CCNC(=O)N1CCC(CCC(=O)NCc2ccc(F)cc2)CC1 | -8.62 | 25.9 µM [falling, partial curve, poor fit] | – |
| CCOc1ccccc1N1C(=O)c2ccc(C(=O)O)cc2C1=O | – | 5.8 µM [falling, full curve] | – |
| NC(=O)c1ccsc1NC(=O)COC(=O)c1nc(Cl)ccc1Cl | 11.7 | 18.4 µM [rising, single point] | – |
| CCNC(=O)NC(=O)CSc1ccc(S(=O)(=O)N(C)C2CCCCC2)cn1 | -18.3 | 18.4 µM [rising, single point] | – |
| CCC1CCCCN1CCCNC(=O)CSc1nc2nc(C)c(Cc3ccccc3)c(C)n2n1 (configuration not stated) | -7.62 | – | – |
| COc1ccccc1CN1CC(C(=O)NCCN2CCOC2=O)CCC1=O (configuration not stated) | -12.2 | – | 0.366 µM [falling, partial curve, poor fit] |
| O=C(Oc1ccc(Nc2ncnc3ccccc23)cc1)c1cccnc1 | -42.4 | 5.17 µM [falling, partial curve, poor fit] | 4.11 µM [falling, partial curve, poor fit] |
| O=C(/C=C/c1ccc(F)cc1)NC(=S)Nc1ccccc1C(=O)NC1CCCCC1 | -14.7 | 29.1 µM [falling, single point] | – |
| COc1ccccc1-c1c(-c2ccc(O)cc2O)n[nH]c1C(F)(F)F | -48.6 | 6.51 µM [falling, full curve] | 11.6 µM [falling, partial curve] |
| COc1ccccc1-c1nn(Cc2ccccc2)cc1C(=O)N1CCN(c2ncccn2)CC1 | 3.45 | 6.51 µM [rising, single point] | – |
| O=C(CN(c1ccc(F)cc1)S(=O)(=O)c1ccc2c(c1)OCCO2)NCc1ccccn1 | 25.7 | 6.51 µM [rising, single point] | – |
| Cc1c(C(=O)NCc2ccccn2)oc2ccc(S(=O)(=O)N3CCOCC3)cc12 | 4.22 | 6.51 µM [rising, full curve] | – |
| Cc1ccc(/C=C/S(=O)(=O)NCC(=O)OCC(=O)NCc2ccccc2)cc1 | 10.4 | – | – |
| COc1ccc(N2CCN(C(=O)COC(=O)c3ccc(OC(F)F)cc3)CC2)cc1 | -12.1 | 0.731 µM [falling, full curve, poor fit] | – |
| Cc1ccc(S(=O)(=O)NCc2ccc(C(=O)NCCCN3CCN(C)CC3)cc2)cc1 | 4.16 | 0.326 µM [falling, full curve] | – |
| Cc1cc(C)c(S(=O)(=O)NC2CC(C)(C)NC(C)(C)C2)cc1Br | 17.5 | – | 0.146 µM [rising, full curve, poor fit] |
| O=C(NCC(c1ccc(F)cc1)N1CCOCC1)c1cccc(Br)c1 (configuration not stated) | 8.61 | – | – |
| C=CCn1cnc2c(c1=O)c1nc3ccccc3nc1n2-c1ccccc1 | – | 0.0206 µM [rising, full curve, poor fit] | – |
| CC(C)(C)c1ccc(NC(=O)COC(=O)C2=COCCO2)cc1 | 17 | 0.00461 µM [rising, full curve, poor fit] | – |

| SMILES | cell number change [%] | AC50 [1] | AC50 [2] |
| --- | --- | --- | --- |
| Cc1cc(OC(=O)c2c(Cl)cc(Cl)cc2Cl)nc(C)n1 | -21.9 | – | – |
| O=C1NCCN(Cc2cccc(Oc3ccccc3)c2)C1CC(=O)N1CCCCC1 (configuration not stated) | -12.9 | – | – |
| CCCCn1c(N)c(N(CC(C)C)C(=O)CSc2ccc([N+](=O)[O-])cc2)c(=O)[nH]c1=O | -100 | 0.291 µM [falling, single point] | 29.1 µM [falling, single point] |
| Cc1cccc2cc(CN(Cc3ccco3)C(=O)NC3CCCCC3)c(=O)[nH]c12 | – | 0.651 µM [rising, partial curve, poor fit] | 0.731 µM [rising, single point] |
| Cc1ccc2nc(NC(=O)CSc3nc4ccccc4o3)sc2c1 | 17 | 6.51 µM [rising, single point] | – |
| CC(=O)c1ccc(NC(=O)c2ccc(C)c(S(=O)(=O)N3CCOCC3)c2)cc1 | 12.9 | 0.58 µM [rising, single point] | – |
| CC1(C)Cc2c(sc(NC(=O)c3ccc4ncsc4c3)c2C(N)=O)C(C)(C)N1 | 12.3 | 0.103 µM [rising, full curve, poor fit] | – |
| CCOC(=O)CSC1=NC(=O)/C(=C\c2ccc(OC(C)=O)cc2)S1 | – | – | 0.731 µM [rising, single point] |
| O=C(Cn1ccc2ccccc21)Nc1ccc2c(c1)OCO2 | -7.64 | – | 0.0411 µM [falling, single point] |
| Nc1n[nH]c(-c2ccccc2[N+](=O)[O-])n1 | -24.8 | 6.51 µM [rising, partial curve, poor fit] | – |
| O=C1CCC(C(=O)N2CCSCC2)CN1Cc1cccc(C(F)(F)F)c1 (configuration not stated) | 30.3 | 16.4 µM [rising, partial curve] | 16.4 µM [rising, partial curve, poor fit] |
| CCN(C(=O)CN1CCc2ccccc21)c1c(N)n(Cc2ccccc2)c(=O)[nH]c1=O | -31.3 | 7.31 µM [falling, partial curve] | 8.2 µM [falling, partial curve, poor fit] |
| C/C(=N\OCC(=O)OCC(=O)NC(=O)c1ccc(OC(F)F)cc1)c1ccc2c(c1)OCO2 | -57.8 | – | 23.1 µM [falling, single point] |
| Cc1ccc(C(C)NC(=S)NC2CCCCC2)c(C)c1 (configuration not stated) | 5.39 | 0.651 µM [rising, partial curve, poor fit] | – |
| CC(C)CC(=O)Nc1ncc([N+](=O)[O-])s1 | -38.8 | 16.4 µM [falling, single point] | 7.31 µM [falling, full curve] |
| O=C(NCC1CCS(=O)(=O)C1)NCC1CCS(=O)(=O)C1 (configuration not stated) | 2.44 | 0.00517 µM [falling, full curve, poor fit] | – |
| CCCCN(C(=O)CSCC(=O)Nc1ccc(C)cc1)c1c(N)n(CCCC)c(=O)[nH]c1=O | 13.8 | 0.517 µM [rising, full curve, poor fit] | – |
| CC(NC(=O)C1CCN(S(=O)(=O)c2ccc(Br)s2)CC1)c1ccccc1 (configuration not stated) | 43.7 | – | 29.1 µM [rising, single point] |
| Cc1cccc(NC(=O)CSc2nnc(-c3ccc(S(=O)(=O)N4CCCC4)cc3)o2)c1 | – | – | 2.91 µM [rising, partial curve] |
| Cc1nnc(SCC(=O)N2CCN(S(=O)(=O)c3ccccc3)CC2)[nH]c1=O | -91.9 | 29.1 µM [falling, single point] | – |

No new results follow: an excerpt of the list.

| SMILES | cell number change [%] | AC50 [1] | AC50 [2] |
| --- | --- | --- | --- |
| CCCCn1c(N)c(N(CC(C)C)C(=O)CSc2ccc([N+](=O)[O-])cc2)c(=O)[nH]c1=O | -100 | 0.291 µM [falling, single point] | 29.1 µM [falling, single point] |
| Cc1cccc2cc(CN(Cc3ccco3)C(=O)NC3CCCCC3)c(=O)[nH]c12 | – | 0.651 µM [rising, partial curve, poor fit] | 0.731 µM [rising, single point] |
| Cc1ccc2nc(NC(=O)CSc3nc4ccccc4o3)sc2c1 | 17 | 6.51 µM [rising, single point] | – |
| CC(=O)c1ccc(NC(=O)c2ccc(C)c(S(=O)(=O)N3CCOCC3)c2)cc1 | 12.9 | 0.58 µM [rising, single point] | – |

(continued)

| SMILES | cell number change [%] | AC50 [1] | AC50 [2] |
| --- | --- | --- | --- |
| COC(=O)c1sccc1NC(=O)c1ccccc1 | 22.1 | 5.8 µM [rising, full curve, poor fit] | 0.0291 µM [rising, full curve, poor fit] |
| Cc1[nH]n2c(=O)cc(C(C)C)nc2c1-c1ccccc1 | 8.91 | 14.6 µM [rising, single point] | – |
| CN(Cc1ccccc1)c1nc2c(c(=O)[nH]c(=O)n2C)n1CCCSc1ncccn1 | -20.8 | 1.16 µM [rising, partial curve] | – |
| N/C(=N\OC(=O)Cc1ccccc1[N+](=O)[O-])c1ccccn1 | 11.4 | 6.51 µM [falling, partial curve, poor fit] | – |
| CN(C(=O)CC1C(=O)NCCN1Cc1ccccc1F)C1CCOCC1 (configuration not stated) | -16.1 | 2.24 µM [falling, full curve] | – |
| COc1ccc(-c2[nH]ncc2/C=N\NS(=O)(=O)c2ccc(Cl)cc2)cc1 | -16.6 | 0.731 µM [rising, full curve] | – |
| NC(=O)[C@H]1CC2(CC(c3cccc(NC(=O)COc4ccc(Cl)cc4)c3)=NO2)CN1C(=O)c1ccccc1C(=O)c1ccccc1 (some centres not stated) | -50.5 | 13 µM [falling, partial curve] | 11.6 µM [falling, partial curve] |
| Cc1[nH]c2ccc(C(=O)OCC(=O)NC3(C#N)CCCCC3)cc2c1C | -38.6 | – | 11.6 µM [falling, partial curve, poor fit] |
| COC(=O)c1c(NS(=O)(=O)c2cccs2)sc2c1CCCC2 | – | 4.11 µM [rising, single point] | – |
| CCOc1ccccc1NC(=O)Nn1cnnc1 | -4.18 | – | – |
| CNc1ncc(Cc2ccccc2)s1 | -18.9 | 23.1 µM [falling, partial curve] | – |
| COc1ccccc1CNC(=O)COC(=O)/C=C/c1cccs1 | -2.35 | – | – |
| O=C(N/N=C/c1ccccc1)c1ccco1 | -13.4 | – | – |
| COc1cc(OC)nc(NC(=O)CSc2nc3ccccc3o2)n1 | – | 6.51 µM [rising, single point] | 6.51 µM [rising, single point] |
| Fc1ccccc1Cn1nnc2c(-n3ccnc3)ncnc21 | 104 | 29.1 µM [rising, single point] | 29.1 µM [rising, single point] |
| O=c1[nH]c(=O)c2nnc(N/N=C/c3ccccc3F)nc2[nH]1 | -19.3 | 0.13 µM [falling, full curve, poor fit] | – |
| Cc1ccc(NC2=CC(=O)C(=O)c3ccccc32)cc1 | -73.7 | 16.4 µM [falling, single point] | 20.6 µM [falling, single point] |
| CC(=O)NC(Cc1c[nH]c2ccccc12)C(=O)OCC(=O)Nc1cc(C)on1 (configuration not stated) | – | – | 5.8 µM [rising, single point] |
